# Source: the supplement of paper PMC12819154, “High-throughput peptide-centric local stability assay extends protein–ligand identification to membrane proteins, tissues and bacteria” (Nature Structural & Molecular Biology, 2025)
# Chains of the proteins cited; added tags and fusions are not shown. Lines headed by an entry give the natural chain unless they say otherwise; changes in a name come on top.
# UniProt Q8WYN0: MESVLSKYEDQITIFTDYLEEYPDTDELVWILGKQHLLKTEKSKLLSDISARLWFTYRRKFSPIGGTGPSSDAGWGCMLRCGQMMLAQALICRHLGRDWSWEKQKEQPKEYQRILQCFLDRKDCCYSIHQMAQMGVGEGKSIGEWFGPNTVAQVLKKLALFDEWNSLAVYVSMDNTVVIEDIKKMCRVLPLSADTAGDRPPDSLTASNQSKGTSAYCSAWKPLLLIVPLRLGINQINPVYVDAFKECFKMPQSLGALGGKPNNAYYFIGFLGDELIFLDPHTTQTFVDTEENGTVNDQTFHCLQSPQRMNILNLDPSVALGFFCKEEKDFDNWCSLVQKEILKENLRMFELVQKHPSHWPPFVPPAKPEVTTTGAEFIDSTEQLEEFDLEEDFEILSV
# UniProt Q8WWN8: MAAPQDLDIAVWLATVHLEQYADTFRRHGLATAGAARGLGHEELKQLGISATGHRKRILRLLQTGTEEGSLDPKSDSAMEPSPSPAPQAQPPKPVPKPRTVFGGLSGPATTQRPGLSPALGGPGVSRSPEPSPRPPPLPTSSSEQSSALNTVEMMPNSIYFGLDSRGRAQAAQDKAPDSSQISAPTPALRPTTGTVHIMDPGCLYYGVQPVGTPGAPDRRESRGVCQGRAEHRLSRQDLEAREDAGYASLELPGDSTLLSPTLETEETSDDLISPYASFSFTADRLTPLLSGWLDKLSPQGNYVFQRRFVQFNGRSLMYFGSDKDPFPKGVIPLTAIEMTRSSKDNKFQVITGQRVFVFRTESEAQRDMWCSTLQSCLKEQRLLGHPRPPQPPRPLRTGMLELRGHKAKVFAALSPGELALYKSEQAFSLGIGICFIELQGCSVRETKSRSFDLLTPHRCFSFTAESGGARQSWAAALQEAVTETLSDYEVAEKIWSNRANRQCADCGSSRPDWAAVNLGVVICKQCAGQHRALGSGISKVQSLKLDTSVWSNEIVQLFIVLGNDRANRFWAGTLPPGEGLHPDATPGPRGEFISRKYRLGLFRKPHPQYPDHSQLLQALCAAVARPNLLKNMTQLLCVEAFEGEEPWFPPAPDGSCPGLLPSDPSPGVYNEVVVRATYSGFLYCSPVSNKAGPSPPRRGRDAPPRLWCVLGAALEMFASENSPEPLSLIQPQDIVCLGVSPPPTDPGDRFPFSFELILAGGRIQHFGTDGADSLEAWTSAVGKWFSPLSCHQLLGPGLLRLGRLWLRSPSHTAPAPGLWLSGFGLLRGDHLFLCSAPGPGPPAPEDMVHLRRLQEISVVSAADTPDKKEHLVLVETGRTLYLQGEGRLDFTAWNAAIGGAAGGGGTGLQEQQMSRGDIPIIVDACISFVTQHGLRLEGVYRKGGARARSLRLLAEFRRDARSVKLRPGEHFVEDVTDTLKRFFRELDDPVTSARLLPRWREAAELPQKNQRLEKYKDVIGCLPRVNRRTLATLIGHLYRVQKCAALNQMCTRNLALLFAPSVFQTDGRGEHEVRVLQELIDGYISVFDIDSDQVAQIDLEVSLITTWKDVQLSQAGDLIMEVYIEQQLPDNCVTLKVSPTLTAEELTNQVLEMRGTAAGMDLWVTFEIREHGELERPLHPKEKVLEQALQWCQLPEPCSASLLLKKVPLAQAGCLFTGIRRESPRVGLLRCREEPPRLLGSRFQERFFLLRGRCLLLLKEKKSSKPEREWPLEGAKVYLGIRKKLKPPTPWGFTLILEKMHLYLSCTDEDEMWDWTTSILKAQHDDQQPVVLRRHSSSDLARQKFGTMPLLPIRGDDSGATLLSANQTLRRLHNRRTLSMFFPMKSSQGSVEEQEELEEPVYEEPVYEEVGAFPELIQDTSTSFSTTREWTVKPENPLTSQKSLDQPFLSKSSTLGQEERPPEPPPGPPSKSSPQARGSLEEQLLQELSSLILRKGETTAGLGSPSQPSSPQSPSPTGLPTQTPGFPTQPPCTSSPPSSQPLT
# UniProt Q8WVM0: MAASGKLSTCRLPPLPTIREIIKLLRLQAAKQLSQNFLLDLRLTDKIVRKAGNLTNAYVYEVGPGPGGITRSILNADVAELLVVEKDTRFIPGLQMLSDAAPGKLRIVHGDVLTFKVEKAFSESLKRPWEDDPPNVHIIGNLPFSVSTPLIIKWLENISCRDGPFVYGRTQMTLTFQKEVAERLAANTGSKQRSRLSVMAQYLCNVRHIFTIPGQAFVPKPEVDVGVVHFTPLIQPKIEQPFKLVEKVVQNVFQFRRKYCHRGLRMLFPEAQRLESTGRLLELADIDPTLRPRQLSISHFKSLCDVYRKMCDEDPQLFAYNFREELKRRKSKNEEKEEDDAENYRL
# UniProt Q92696: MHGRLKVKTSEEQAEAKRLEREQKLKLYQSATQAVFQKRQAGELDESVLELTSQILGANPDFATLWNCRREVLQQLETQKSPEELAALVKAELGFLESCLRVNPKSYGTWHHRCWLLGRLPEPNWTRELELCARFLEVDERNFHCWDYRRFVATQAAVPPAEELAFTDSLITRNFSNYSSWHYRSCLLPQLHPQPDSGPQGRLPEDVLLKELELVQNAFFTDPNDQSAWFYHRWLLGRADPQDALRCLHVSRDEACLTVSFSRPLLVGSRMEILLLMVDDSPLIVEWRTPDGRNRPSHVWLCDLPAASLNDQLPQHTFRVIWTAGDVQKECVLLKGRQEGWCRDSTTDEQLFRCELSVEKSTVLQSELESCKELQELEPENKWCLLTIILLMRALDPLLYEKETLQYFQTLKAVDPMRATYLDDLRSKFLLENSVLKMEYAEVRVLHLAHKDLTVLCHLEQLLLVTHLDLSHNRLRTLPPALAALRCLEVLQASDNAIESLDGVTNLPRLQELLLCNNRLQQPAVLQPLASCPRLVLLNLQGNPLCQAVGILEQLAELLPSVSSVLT
# UniProt Q8WVR3: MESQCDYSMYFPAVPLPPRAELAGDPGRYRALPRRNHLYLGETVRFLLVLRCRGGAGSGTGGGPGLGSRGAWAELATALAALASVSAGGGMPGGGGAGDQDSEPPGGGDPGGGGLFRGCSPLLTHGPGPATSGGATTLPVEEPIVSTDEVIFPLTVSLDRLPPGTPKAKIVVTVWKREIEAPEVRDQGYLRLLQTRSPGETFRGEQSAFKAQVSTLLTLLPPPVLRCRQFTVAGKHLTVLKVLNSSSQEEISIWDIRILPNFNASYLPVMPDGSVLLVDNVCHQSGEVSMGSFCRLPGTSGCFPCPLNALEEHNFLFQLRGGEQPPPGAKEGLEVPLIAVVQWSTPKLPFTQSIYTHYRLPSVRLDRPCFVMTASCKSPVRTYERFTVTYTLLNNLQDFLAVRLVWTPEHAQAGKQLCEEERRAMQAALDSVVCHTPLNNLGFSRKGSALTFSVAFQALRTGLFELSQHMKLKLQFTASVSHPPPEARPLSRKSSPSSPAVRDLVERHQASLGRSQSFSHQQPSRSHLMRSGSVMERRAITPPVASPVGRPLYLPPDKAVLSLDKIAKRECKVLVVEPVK
# UniProt Q8WWY3: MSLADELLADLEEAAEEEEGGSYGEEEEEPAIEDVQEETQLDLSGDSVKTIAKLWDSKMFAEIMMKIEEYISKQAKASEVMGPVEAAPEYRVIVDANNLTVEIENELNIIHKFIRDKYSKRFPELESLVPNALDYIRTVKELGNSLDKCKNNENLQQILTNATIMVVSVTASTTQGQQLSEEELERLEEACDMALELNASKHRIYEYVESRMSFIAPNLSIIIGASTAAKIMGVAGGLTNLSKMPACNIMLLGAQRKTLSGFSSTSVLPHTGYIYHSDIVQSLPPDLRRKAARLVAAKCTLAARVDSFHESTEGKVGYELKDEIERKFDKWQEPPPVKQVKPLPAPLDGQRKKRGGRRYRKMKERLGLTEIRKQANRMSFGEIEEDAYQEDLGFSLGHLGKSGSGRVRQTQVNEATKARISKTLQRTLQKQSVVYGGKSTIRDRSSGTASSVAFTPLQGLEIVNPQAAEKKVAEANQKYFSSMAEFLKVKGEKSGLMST
# UniProt Q8WTU0: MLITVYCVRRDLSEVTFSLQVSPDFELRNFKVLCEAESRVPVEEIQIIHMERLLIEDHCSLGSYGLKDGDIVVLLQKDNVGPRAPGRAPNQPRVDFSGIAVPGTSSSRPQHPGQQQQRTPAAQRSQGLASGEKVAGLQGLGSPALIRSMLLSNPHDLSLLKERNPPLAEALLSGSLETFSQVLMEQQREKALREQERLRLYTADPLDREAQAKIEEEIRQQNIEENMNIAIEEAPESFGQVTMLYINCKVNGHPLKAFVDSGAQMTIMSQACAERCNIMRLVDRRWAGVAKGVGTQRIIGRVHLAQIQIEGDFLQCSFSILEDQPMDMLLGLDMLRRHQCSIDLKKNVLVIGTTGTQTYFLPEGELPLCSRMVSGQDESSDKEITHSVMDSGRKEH
# UniProt Q92560: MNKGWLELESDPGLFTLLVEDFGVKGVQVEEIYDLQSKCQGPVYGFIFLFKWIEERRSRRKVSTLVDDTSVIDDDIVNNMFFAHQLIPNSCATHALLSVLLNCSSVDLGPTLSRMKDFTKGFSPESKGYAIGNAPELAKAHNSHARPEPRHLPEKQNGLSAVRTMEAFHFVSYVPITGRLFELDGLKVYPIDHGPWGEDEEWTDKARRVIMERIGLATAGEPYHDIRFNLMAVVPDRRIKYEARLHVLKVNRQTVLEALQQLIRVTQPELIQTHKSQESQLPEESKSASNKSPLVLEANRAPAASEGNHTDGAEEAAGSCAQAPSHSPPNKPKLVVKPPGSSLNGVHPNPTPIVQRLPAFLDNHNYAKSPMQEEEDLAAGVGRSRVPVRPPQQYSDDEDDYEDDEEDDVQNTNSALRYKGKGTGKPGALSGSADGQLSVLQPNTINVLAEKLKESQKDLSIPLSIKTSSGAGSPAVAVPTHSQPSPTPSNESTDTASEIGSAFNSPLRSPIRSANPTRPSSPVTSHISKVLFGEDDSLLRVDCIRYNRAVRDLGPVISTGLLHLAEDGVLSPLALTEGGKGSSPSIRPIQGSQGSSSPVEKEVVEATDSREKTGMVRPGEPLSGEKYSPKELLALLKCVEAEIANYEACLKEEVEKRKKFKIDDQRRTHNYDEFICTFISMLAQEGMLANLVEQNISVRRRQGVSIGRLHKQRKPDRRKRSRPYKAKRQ
# UniProt Q92547, whole entry: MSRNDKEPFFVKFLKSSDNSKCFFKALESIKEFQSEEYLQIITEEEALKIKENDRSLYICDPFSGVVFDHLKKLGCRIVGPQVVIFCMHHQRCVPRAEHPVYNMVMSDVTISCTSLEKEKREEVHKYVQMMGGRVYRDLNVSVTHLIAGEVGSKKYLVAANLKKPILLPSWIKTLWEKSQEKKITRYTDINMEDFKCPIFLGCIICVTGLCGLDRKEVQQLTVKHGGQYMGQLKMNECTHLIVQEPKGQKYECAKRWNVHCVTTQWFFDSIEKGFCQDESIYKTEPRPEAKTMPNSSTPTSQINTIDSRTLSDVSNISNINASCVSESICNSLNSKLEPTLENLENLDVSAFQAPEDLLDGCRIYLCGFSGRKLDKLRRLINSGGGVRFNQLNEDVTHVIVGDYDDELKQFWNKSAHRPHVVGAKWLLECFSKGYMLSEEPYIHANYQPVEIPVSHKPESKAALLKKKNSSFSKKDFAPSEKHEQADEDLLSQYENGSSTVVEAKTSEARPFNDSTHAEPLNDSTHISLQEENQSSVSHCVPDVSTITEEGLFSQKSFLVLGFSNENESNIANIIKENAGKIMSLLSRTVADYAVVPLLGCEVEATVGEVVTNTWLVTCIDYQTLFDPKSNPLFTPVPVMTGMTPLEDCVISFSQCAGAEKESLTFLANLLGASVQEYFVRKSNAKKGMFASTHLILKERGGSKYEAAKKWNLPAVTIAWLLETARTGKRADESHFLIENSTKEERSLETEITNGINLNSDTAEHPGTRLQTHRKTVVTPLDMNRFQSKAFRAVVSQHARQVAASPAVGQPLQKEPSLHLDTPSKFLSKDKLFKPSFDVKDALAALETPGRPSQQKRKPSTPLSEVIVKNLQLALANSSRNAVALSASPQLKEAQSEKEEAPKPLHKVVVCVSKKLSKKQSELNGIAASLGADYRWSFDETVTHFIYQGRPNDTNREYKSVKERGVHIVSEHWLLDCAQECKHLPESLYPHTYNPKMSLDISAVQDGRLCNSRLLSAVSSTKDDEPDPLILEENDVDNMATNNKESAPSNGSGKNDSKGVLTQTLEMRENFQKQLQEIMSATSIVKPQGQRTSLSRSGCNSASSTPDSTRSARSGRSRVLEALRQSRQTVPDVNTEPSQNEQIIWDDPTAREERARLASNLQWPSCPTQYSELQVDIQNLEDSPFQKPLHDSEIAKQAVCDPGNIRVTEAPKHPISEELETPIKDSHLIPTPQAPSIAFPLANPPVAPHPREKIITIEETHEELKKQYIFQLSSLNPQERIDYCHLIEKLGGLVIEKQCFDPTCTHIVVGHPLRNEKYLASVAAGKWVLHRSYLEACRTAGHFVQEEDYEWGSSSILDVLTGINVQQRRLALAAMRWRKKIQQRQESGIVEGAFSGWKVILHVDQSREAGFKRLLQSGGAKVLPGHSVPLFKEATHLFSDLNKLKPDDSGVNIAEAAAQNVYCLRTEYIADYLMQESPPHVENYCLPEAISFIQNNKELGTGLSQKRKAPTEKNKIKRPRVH
# This is one part of the list. Most values lie at the level of the controls, where differences are scatter.
# Compound: CN[C@@H]1C[C@H]2O[C@@](C)([C@@H]1OC)n1c3ccccc3c3c4c(c5c6ccccc6n2c5c31)C(=O)NC4 [staurosporine]
# Experiment: log2 fold change of tryptic peptide abundance, ligand vs vehicle (limited proteolysis) (log2 ratio); higher = more trypsin-susceptible (destabilized)
# Details: ligand concentration: 20 uM; sample: K562 cleared lysate; digestion: 4 min, 22 C (HT-PELSA RT4min, Orbitrap Astral)
row,Target,log2 fold change
1,"TAF4B (peptide sequence: LPAPQIVAVK, peptide start residue: 88) (UniProt Q92750)",0.378
2,"GEMIN6 (peptide sequence: EKLMHLFTSGDCK, peptide start residue: 80) (UniProt Q8WXD5)",0.65
3,"H1FX (peptide sequence: AAKPSVPKVPK, peptide start residue: 200) (UniProt Q92522)",0.301
4,"ATG4A (peptide sequence: ILQCFLDRK, peptide start residue: 114) (UniProt Q8WYN0)",0.177
5,"NUDCD2 (peptide sequence: HVALSVGGR, peptide start residue: 51) (UniProt Q8WVJ2)",0.237
6,"PDCD6IP (peptide sequence: KTERDELLK, peptide start residue: 699) (UniProt Q8WUM4)",0.665
7,"DEPDC1B (peptide sequence: SYEHCFTAAEAVDWLHELLR, peptide start residue: 39) (UniProt Q8WUY9)",0.342
8,"DTX3L (peptide sequence: GGGMSSLAGK, peptide start residue: 509) (UniProt Q8TDB6)",0.384
9,"DIS3L (peptide sequence: YIQGILNVNK, peptide start residue: 243) (UniProt Q8TF46)",-0.883
10,"ARAP3 (peptide sequence: GVIPLTAIEMTR, peptide start residue: 330) (UniProt Q8WWN8)",-0.322
11,"TFB1M (peptide sequence: QLSISHFK, peptide start residue: 294) (UniProt Q8WVM0)",0.497
12,"CCHCR1 (peptide sequence: VQSLTHILALQEEELTR, peptide start residue: 298) (UniProt Q8TD31)",0.242
13,"EPS8L1 (peptide sequence: WDSCDSLNGLDPSEKEK, peptide start residue: 578) (UniProt Q8TE68)",0.492
14,"ATXN2L (peptide sequence: RFQLEELRK, peptide start residue: 539) (UniProt Q8WWM7)",0.546
15,"UniProt Q92674 (peptide sequence: FFAPALISVSLPVRK, peptide start residue: 244)",-0.458
16,"MADD (peptide sequence: IFTGSLLVEEK, peptide start residue: 226) (UniProt Q8WXG6)",-0.256
17,"UniProt Q8TCP9 (peptide sequence: TIPLSDNTISR, peptide start residue: 107)",-0.117
18,"RABGGTA (peptide sequence: TSEEQAEAK, peptide start residue: 9) (UniProt Q92696)",-0.0613

row,Target,log2 fold change
1,"UniProt Q8TC56 (peptide sequence: KSSTHSSTK, peptide start residue: 498)",-0.566
2,"UniProt Q8TF76 (peptide sequence: EHQEASVPK, peptide start residue: 312)",0.92
3,"DYNC2LI1 (peptide sequence: PSETLWEIAK, peptide start residue: 2) (UniProt Q8TCX1)",-0.207
4,"POC1B (peptide sequence: TPHPHEEKVETVEINPK, peptide start residue: 332) (UniProt Q8TC44)",0.576
5,"RUFY2 (peptide sequence: LIEELAIAK, peptide start residue: 237) (UniProt Q8WXA3)",-0.205
6,"CEP192 (peptide sequence: IVVLDAGKHFEDK, peptide start residue: 174) (UniProt Q8TEP8)",-0.285
7,"DOCK2 (peptide sequence: IKEEMSKDQPDYAMYSR, peptide start residue: 198) (UniProt Q92608)",0.526
8,"DDB2 (peptide sequence: TSEIVLRPR, peptide start residue: 12) (UniProt Q92466)",-0.816
9,"GNPDA2 (peptide sequence: TLAMDTILANAK, peptide start residue: 161) (UniProt Q8TDQ7)",-0.101
10,"DOT1L (peptide sequence: LSGLAAPDYTR, peptide start residue: 763) (UniProt Q8TEK3)",0.491
11,"UniProt Q8WVR3 (peptide sequence: VLVVEPVK, peptide start residue: 573)",0.175
12,"PRPF31 (peptide sequence: YFSSMAEFLK, peptide start residue: 479) (UniProt Q8WWY3)",-0.0965
13,"UniProt Q8WTU0 (peptide sequence: HQCSIDLK, peptide start residue: 330)",0.129
14,"BAP1 (peptide sequence: SPMQEEEDLAAGVGR, peptide start residue: 369) (UniProt Q92560)",0.249
15,"LEO1 (peptide sequence: RDEEGNEIKESNAR, peptide start residue: 426) (UniProt Q8WVC0)",0.743
16,"UniProt Q8TF01 (peptide sequence: EADGDVVNEK, peptide start residue: 473)",-0.18
17,"NSMCE1 (peptide sequence: MATDFAENELDLFRK, peptide start residue: 97) (UniProt Q8WV22)",-0.576
18,"TOPBP1 (peptide sequence: ELGTGLSQK, peptide start residue: 1498) (UniProt Q92547)",-0.245

# Looked up one by one from above, two records:
row,Target,log2 fold change
12,"CCHCR1 (peptide sequence: VQSLTHILALQEEELTR, peptide start residue: 298) (UniProt Q8TD31)",0.242
3,"H1FX (peptide sequence: AAKPSVPKVPK, peptide start residue: 200) (UniProt Q92522)",0.301
